Results deposited as PubChem BioAssay AID652243 (Drosophila RNAi Screening Center, 2013).
The screen tested about 24,000 reagents; below is a random part of those with a known target gene and a result. Of all reagents, 246 (1%) got an active call. 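Plates not normalised; calls are printed but the firefly/Renilla ratio behind them is not deposited; fold cut for lowering reported inconsistently.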 Raw values vary from plate to plate and are shown uncorrected. No sequences are given here. Not given: the amount of reagent.

Purpose: 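Fly regulators of androgen-dependent reporter output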 (primary screen)
System: Drosophila S2R+ cells
Knock-down reagent: long dsRNA against Drosophila genes
Timing: 72 h (48 h, then 24 h hormone)
Treatment: synthetic androgen R1881 at 10 nM for 24 h
Measurement: 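Firefly light from an androgen-responsive reporter and Renilla control light per well, raw and unnormalised, for each of two replicates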
Scale: firefly reporter light: higher = more light from androgen-responsive reporter; Renilla control light: higher = more constitutive control signal (cell number, transfection)
Active means: 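Hit when the log firefly-to-Renilla ratio dropped or increased by a fixed fold versus the mean of GFP or LacZ controls across duplicate plates; lowering cut given as 1.5 and as 3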
Meaning of the calls: active = hit: reporter lowered or raised; inactive = no hit

Gene | dsRNA | firefly reporter light, replicate 1 | firefly reporter light, replicate 2 | Renilla control light, replicate 1 | Renilla control light, replicate 2 | activity call
CG14105 (GeneID 39507) | DRSC10107 | 2.49e5 | 2.50e5 | 2.69e6 | 2.20e6 | inactive
CG13096 (GeneID 34183) | DRSC02198 | 1.16e5 | 2.02e5 | 1.57e6 | 1.53e6 | inactive
Graf (GeneID 32522) | DRSC20131 | 1.28e5 | 1.20e5 | 6.70e5 | 6.79e5 | inactive
sba (GeneID 42824) | DRSC13643 | 8583 | 11456 | 59331 | 55116 | inactive
sba (GeneID 42824) | DRSC17050 | 1.10e5 | 1.50e5 | 1.85e6 | 2.19e6 | inactive
sba (GeneID 42824) | DRSC25797 | 2.47e5 | 3.27e5 | 7.23e5 | 6.02e5 | inactive
Dhc16F (GeneID 32785) | DRSC20242 | 5.53e5 | 7.55e5 | 4.51e6 | 4.49e6 | inactive
CG5439 (GeneID 34710) | DRSC02861 | 9.75e5 | 8.87e5 | 2.09e6 | 2.17e6 | inactive
CG5439 (GeneID 34710) | DRSC25932 | 2.58e5 | 4.14e5 | 7.22e5 | 7.51e5 | inactive
CG31115 (GeneID 318597) | DRSC13692 | 82500 | 1.33e5 | 1.09e5 | 1.55e5 | inactive
CG31115 (GeneID 318597) | DRSC26097 | 3.28e5 | 2.99e5 | 6.95e5 | 6.64e5 | inactive
cdi (GeneID 42289) | DRSC16922 | 62135 | 88277 | 9.03e5 | 1.04e6 | inactive
cdi (GeneID 42289) | DRSC28376 | 2.47e5 | 4.30e5 | 6.97e5 | 1.15e6 | inactive
cdi (GeneID 42289) | DRSC36651 | – | – | – | – | inactive
cdi (GeneID 42289) | DRSC36652 | – | – | – | – | inactive
CG34448 (GeneID 5740554) | DRSC26596 | 3.05e5 | 3.25e5 | 6.15e5 | 6.85e5 | inactive
mgl (GeneID 8674055) | DRSC17800 | 4.84e5 | 4.78e5 | 3.30e6 | 3.62e6 | inactive
mgl (GeneID 8674055) | DRSC17823 | 63034 | 87718 | 4.83e5 | 5.32e5 | inactive
mgl (GeneID 8674055) | DRSC17859 | 2.54e5 | 2.56e5 | 3.19e6 | 4.16e6 | inactive
mgl (GeneID 8674055) | DRSC23464 | 18031 | 11082 | 6090 | 6228 | inactive
spartin (GeneID 40582) | DRSC12187 | 1.23e5 | 1.02e5 | 2.95e6 | 2.65e6 | inactive
spartin (GeneID 40582) | DRSC27182 | 3.59e5 | 2.73e5 | 4.87e5 | 5.01e5 | inactive
Rbm13 (GeneID 31818) | DRSC17749 | 2.24e5 | 2.39e5 | 2.82e6 | 2.77e6 | inactive
Rbm13 (GeneID 31818) | DRSC25416 | 7.45e5 | 1.08e6 | 8.39e5 | 9.35e5 | inactive

5 entries already listed, arranged by “Renilla control light, replicate 1”, ascending.
Gene | dsRNA | firefly reporter light, replicate 1 | firefly reporter light, replicate 2 | Renilla control light, replicate 1 | Renilla control light, replicate 2 | activity call
CG31115 (GeneID 318597) | DRSC13692 | 82500 | 1.33e5 | 1.09e5 | 1.55e5 | inactive
CG31115 (GeneID 318597) | DRSC26097 | 3.28e5 | 2.99e5 | 6.95e5 | 6.64e5 | inactive
CG5439 (GeneID 34710) | DRSC25932 | 2.58e5 | 4.14e5 | 7.22e5 | 7.51e5 | inactive
cdi (GeneID 42289) | DRSC16922 | 62135 | 88277 | 9.03e5 | 1.04e6 | inactive
CG5439 (GeneID 34710) | DRSC02861 | 9.75e5 | 8.87e5 | 2.09e6 | 2.17e6 | inactive

Further records:
Gene | dsRNA | firefly reporter light, replicate 1 | firefly reporter light, replicate 2 | Renilla control light, replicate 1 | Renilla control light, replicate 2 | activity call
kto (GeneID 44830) | DRSC10983 | 21206 | 27042 | 4.60e5 | 3.56e5 | inactive
CG5539 (GeneID 37766) | DRSC04510 | 1.56e5 | 1.39e5 | 1.64e6 | 1.15e6 | inactive
pio (GeneID 37929) | DRSC04386 | 5.53e5 | 6.44e5 | 1.15e6 | 1.27e6 | inactive
pio (GeneID 37929) | DRSC29371 | 3.62e5 | 5.03e5 | 1.44e6 | 1.44e6 | inactive
CG31233 (GeneID 42557) | DRSC15888 | 2.22e5 | 2.46e5 | 4.24e6 | 4.57e6 | inactive
Ip259 (GeneID 34419) | DRSC03352 | 9.80e5 | 8.36e5 | 1.52e6 | 1.74e6 | inactive
CG2211 (GeneID 38157) | DRSC08559 | 79204 | 84596 | 6.08e5 | 6.93e5 | inactive
HGTX (GeneID 53446) | DRSC09319 | 1.16e5 | 1.22e5 | 2.33e5 | 2.62e5 | inactive
HGTX (GeneID 53446) | DRSC11181 | 1.49e5 | 1.80e5 | 2.45e6 | 2.15e6 | inactive
Nlg3 (GeneID 40912) | DRSC12524 | 80566 | 1.70e5 | 3.16e6 | 2.93e6 | inactive
Nlg3 (GeneID 40912) | DRSC12540 | 85104 | 1.51e5 | 2.44e6 | 1.74e6 | inactive
Nlg3 (GeneID 40912) | DRSC12574 | 57362 | 68641 | 1.77e6 | 1.13e6 | inactive
Nlg3 (GeneID 40912) | DRSC25678 | 9.35e5 | 9.56e5 | 1.11e6 | 1.20e6 | inactive
CG18480 (GeneID 34920) | DRSC01957 | 9.47e5 | 4.17e5 | 1.41e6 | 1.02e6 | inactive
CG18480 (GeneID 34920) | DRSC24949 | 8.97e5 | 9.08e5 | 9.34e5 | 9.29e5 | inactive
Mid1 (GeneID 37953) | DRSC04231 | 4.54e5 | 4.40e5 | 2.29e6 | 2.88e6 | inactive
Mid1 (GeneID 37953) | DRSC04308 | 57342 | 51697 | 1.30e6 | 1.43e6 | inactive
Mid1 (GeneID 37953) | DRSC22773 | 3.95e5 | 5.26e5 | 5.81e5 | 6.75e5 | inactive
Mid1 (GeneID 37953) | DRSC22803 | 3.72e5 | 9.09e5 | 1.24e6 | 2.48e6 | inactive
Mid1 (GeneID 37953) | DRSC25509 | 8.02e5 | 7.02e5 | 9.08e5 | 7.32e5 | inactive
Mid1 (GeneID 37953) | DRSC28634 | 3.43e5 | 3.72e5 | 1.36e6 | 1.10e6 | inactive
